# Test results reported in PMC7819943, “Rice protein-binding microarrays: a tool to detect cis-acting elements near promoter regions in rice”.
# Some of the results follow.
# Target: T1, OsSMF1 (Oryza sativa, UniProt Q6ZLB0 1-436)
# T1 sequence: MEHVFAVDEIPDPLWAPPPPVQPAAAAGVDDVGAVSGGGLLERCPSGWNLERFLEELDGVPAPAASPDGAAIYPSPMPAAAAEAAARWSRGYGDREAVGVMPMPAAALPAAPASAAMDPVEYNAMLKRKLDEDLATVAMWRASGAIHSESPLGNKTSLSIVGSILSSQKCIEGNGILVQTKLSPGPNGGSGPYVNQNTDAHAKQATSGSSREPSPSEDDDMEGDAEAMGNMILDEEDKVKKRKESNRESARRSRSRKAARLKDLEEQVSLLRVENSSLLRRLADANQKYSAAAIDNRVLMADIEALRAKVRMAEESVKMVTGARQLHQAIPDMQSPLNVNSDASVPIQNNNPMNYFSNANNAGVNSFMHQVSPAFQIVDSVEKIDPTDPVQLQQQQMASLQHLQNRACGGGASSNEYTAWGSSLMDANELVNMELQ
# Assay: protein-binding microarray (RPBM); PBS, 2% BSA, 51.3 ng/ul salmon testes DNA, 50 uM zinc acetate, 200 nM TF, 25 C, 1 h; high values mean tight binding
# Conditions: protein: recombinant; tags: N-terminal polyhistidine and DsRed monomer fusion (pET32a); chain copies: 2; label: CyDye5-dUTP incorporated in the synthesized complementary strand; 3' TTTTT single-stranded linker to array surface; dsDNA, one strand shown
# Summary of the method: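 The binding signal is fluorescence intensity per array feature (arbitrary units). Readings came from an Axon 4000B scanner after a washed, 2% BSA-blocked, double-stranded custom Agilent array had been incubated for 1 h at 25 °C with 200 nM protein and 50 µM zinc acetate. The protein was a Ni–NTA-purified transcription factor fused N-terminally to polyhistidine and DsRed, expressed in E. coli BL21-CodonPlus.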
row,Sequence,binding signal
1,ATCCGGGCCGTCCGATCCCGCCACGTGGACGACGGAAACCCGGAGTCACCTAGTGCAG,20800 fluorescence intensity (a.u.)
2,TTCCGGTGGGGACGGCGCGGCGGACGTGGAGGTGGAGCGGCGGAGTCACCTAGTGCAG,6660 fluorescence intensity (a.u.)
3,CGGTGCTTGTGGTTTGACTACTGAACGATGTACAACCGCGCGGAGTCACCTAGTGCAG,3570 fluorescence intensity (a.u.)
4,AAGCATAAAACCAATCCTAGCTTCTTTTCCTAAACCCAACCGGAGTCACCTAGTGCAG,14600 fluorescence intensity (a.u.)
5,CAGTGTTACATCATCGACCGGTTATCATCTTTGTTTCGATCGGAGTCACCTAGTGCAG,3580 fluorescence intensity (a.u.)
6,TTCCCTCCGGCGTCAACATCGTCACAACGTCATTCTTATTCGGAGTCACCTAGTGCAG,4710 ± 501 fluorescence intensity (a.u.)
7,ACGGCCACGCCTCGCGTCGTCATAGTCGTCTTCCTCGATCCGGAGTCACCTAGTGCAG,4360 fluorescence intensity (a.u.)
8,TGGGCTCAATCCAACTCACATGCAGCGAGTGCTCGACTTGCGGAGTCACCTAGTGCAG,3630 fluorescence intensity (a.u.)
9,CCCTTCTCCTATCGTACGTGGCTGGGTGGCACACGGCGCCCGGAGTCACCTAGTGCAG,7270 fluorescence intensity (a.u.)
10,CCAAGGTGCGTGCGTGCCTTCTGCGTGCGTTGCTGTTGCTCGGAGTCACCTAGTGCAG,5180 fluorescence intensity (a.u.)
11,AATCTATCGTGTAGGTGTACGTGTTGATATCAAAGATGAACGGAGTCACCTAGTGCAG,3530 fluorescence intensity (a.u.)
12,GTTTTGACCGGTCTTCATACACGTGGCAGTACAGCGTGGCCGGAGTCACCTAGTGCAG,28600 fluorescence intensity (a.u.)
13,CAGCCACTTACACAGTAGTTACACCTCATTTACACACACTCGGAGTCACCTAGTGCAG,4000 fluorescence intensity (a.u.)
14,CACAGGATTGAGAGAATGGCTTCCAGCTCACTCGGGGTTTCGGAGTCACCTAGTGCAG,3160 fluorescence intensity (a.u.)
15,CAAATGTTCTTTTGACGTATATGACCACATATTTGCAGTACGGAGTCACCTAGTGCAG,3520 fluorescence intensity (a.u.)
16,TACTGTAGCACCACATTGTCAATCATGGCGCAATTATGCTCGGAGTCACCTAGTGCAG,12900 fluorescence intensity (a.u.)
17,CTCTTCATTTGTTAATTTAATTTGATTAATTCAGTGCTTCCGGAGTCACCTAGTGCAG,64900 fluorescence intensity (a.u.)
18,ATTCTATAGGCCGATCGACGTGGCAGACCCGAGCCCAATACGGAGTCACCTAGTGCAG,7750 fluorescence intensity (a.u.)
19,ATCCTCCACGGTTGAGTGACTTGAATCCGCGGCGGTTTGACGGAGTCACCTAGTGCAG,3300 fluorescence intensity (a.u.)
20,CCAAACGGTGAAACACCACGTATGCTTCTTTTATTGATCTCGGAGTCACCTAGTGCAG,6280 fluorescence intensity (a.u.)
21,ATATACAGTACACGTTCTTGCCCTCATTGCCACATAGTACCGGAGTCACCTAGTGCAG,4020 fluorescence intensity (a.u.)

row,Sequence,binding signal
1,CGAGGCGGGACACGGCCACGTCGTACACGCGGTGCCGGGCCGGAGTCACCTAGTGCAG,3810 fluorescence intensity (a.u.)
2,CTTCATACGAACCTGCAGTGGTGACGGCGCACAGGAAGGGCGGAGTCACCTAGTGCAG,3740 fluorescence intensity (a.u.)
3,GTCCTACGGGGCTGCTGAATCAGCGTGGAACCCACGCGGACGGAGTCACCTAGTGCAG,5600 fluorescence intensity (a.u.)
4,GCCTCAATGGCGTACTCGACCTGGAACAACCGCCCCTCCGCGGAGTCACCTAGTGCAG,3660 fluorescence intensity (a.u.)
5,ATAAGTGCAGCCGTGGATATCCGTGCCCAACGTTTGACCGCGGAGTCACCTAGTGCAG,3440 fluorescence intensity (a.u.)
6,TTTAGTTGCCCAGAAATGCATTGTCATCAAGTTGTTGTACCGGAGTCACCTAGTGCAG,36000 fluorescence intensity (a.u.)
7,GGGGATTGAGATCCTATGACGTTACTGTTCACCGTAACTGCGGAGTCACCTAGTGCAG,4770 fluorescence intensity (a.u.)
8,ACAGAGACAAAACGATTACGTAAAGCTTGATTTCCGCCTTCGGAGTCACCTAGTGCAG,4060 fluorescence intensity (a.u.)
9,CATGGTAGAAAATTAGATTATGGTGCATTTGCTGCAAATGCGGAGTCACCTAGTGCAG,3860 fluorescence intensity (a.u.)
10,ACCTTTCCAATACTTTTCAATATCCGTTTCTGCCACGCCACGGAGTCACCTAGTGCAG,4690 fluorescence intensity (a.u.)
11,AGTACTCTGTCCTTGTCATGCACGATTCACTTACTTCCCACGGAGTCACCTAGTGCAG,5950 fluorescence intensity (a.u.)
12,GTATATTTTAACATTGATTACCTCGTACACCTCATCTGTCCGGAGTCACCTAGTGCAG,4710 fluorescence intensity (a.u.)
13,CGGTTTTGACGGACGTGGTGCCCACGTGGCTAGTTTGACTCGGAGTCACCTAGTGCAG,19800 fluorescence intensity (a.u.)
14,GGCTACCCCATCGCCACCACCACCACCACCGCATCTCTCTCGGAGTCACCTAGTGCAG,3330 fluorescence intensity (a.u.)
15,AATAGCCTATCCACGGTCACGATGGTTTAGAATTCTCTTTCGGAGTCACCTAGTGCAG,3980 fluorescence intensity (a.u.)
16,CACCCCACCCCGGCGCGCGCGGCGATGCGTCACGCTTTGCCGGAGTCACCTAGTGCAG,6680 fluorescence intensity (a.u.)
17,ATCTATCTTCATCAGCAGCAGAGGCAGAGGTGAGCTGAGCCGGAGTCACCTAGTGCAG,3160 fluorescence intensity (a.u.)
18,AACAAATATCGTTCCTCGGTGTCGTCATCGTGTTTGGATCCGGAGTCACCTAGTGCAG,6670 fluorescence intensity (a.u.)
19,AATCACCACCTCGCCTCGCGTCACCACCTCTCGCCGCCGCCGGAGTCACCTAGTGCAG,5330 fluorescence intensity (a.u.)
20,GTTATCATTCTTGACTTCTCCCCAGATTGGAAATCACATGCGGAGTCACCTAGTGCAG,4230 fluorescence intensity (a.u.)
21,ACACACCTTGCAGGGACACATGCAGAGTCATCAGGATGAACGGAGTCACCTAGTGCAG,3630 fluorescence intensity (a.u.)

# Part of the list above, with tabs:
row	Sequence	binding signal
4	AAGCATAAAACCAATCCTAGCTTCTTTTCCTAAACCCAACCGGAGTCACCTAGTGCAG	14600 fluorescence intensity (a.u.)
5	ATAAGTGCAGCCGTGGATATCCGTGCCCAACGTTTGACCGCGGAGTCACCTAGTGCAG	3440 fluorescence intensity (a.u.)
